Among the data in publication doi:10.1101/2020.11.14.382416 are binding values, retold here.

Amino acid sequences for entries named in this document (tags omitted).
UniProt Q86U44, whole entry: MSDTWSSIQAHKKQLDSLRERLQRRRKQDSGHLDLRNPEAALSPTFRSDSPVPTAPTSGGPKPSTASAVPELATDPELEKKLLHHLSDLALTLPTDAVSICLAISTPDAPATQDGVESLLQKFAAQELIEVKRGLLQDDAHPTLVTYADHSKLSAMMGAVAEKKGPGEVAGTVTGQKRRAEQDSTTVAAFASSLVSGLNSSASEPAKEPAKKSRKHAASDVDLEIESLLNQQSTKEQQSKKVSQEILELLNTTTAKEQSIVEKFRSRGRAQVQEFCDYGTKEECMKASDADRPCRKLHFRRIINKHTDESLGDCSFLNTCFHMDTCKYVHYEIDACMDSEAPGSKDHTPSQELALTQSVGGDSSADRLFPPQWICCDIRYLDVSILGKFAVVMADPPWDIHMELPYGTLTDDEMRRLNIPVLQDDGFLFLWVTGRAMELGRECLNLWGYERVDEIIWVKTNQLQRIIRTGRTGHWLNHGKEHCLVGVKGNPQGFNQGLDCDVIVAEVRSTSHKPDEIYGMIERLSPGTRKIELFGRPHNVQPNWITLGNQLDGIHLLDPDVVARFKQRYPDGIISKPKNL

Results are given in words; binding and its absence hold for the method and conditions named. In cells and extracts the contact can be indirect. A yes stands for co-enrichment or nearness to the bait. Other partners may have been found.

The target of this assay is Flag-tagged METTL3 in TL macrophages (UniProt Q86U44). The assay is described as follows: affinity purification with mass spectrometry.

Turning to “ribosome-binding protein 1 (Rrbp1) (from UniProt Q99PL5 1-1605)”, the binding result is “binds”.

As for “E3 SUMO-protein ligase PIAS1 (from UniProt O88907 1-651) (enzyme)”, the binding entry was “binds”.

B1: ribosomal RNA processing protein Rrp8 (protein, UniProt Q9DB85 1-457)
chain: MFEEPEWVEAAPAIVGLGAATAQVRPATAPPVKGRKRRHLLATLRALEAASLSQQTPSLPGSDSEEEEEVGRKKRHLQRPSLASVSKEVGKKRKGKCQKQAPSISDSEGKEIRRKCHRQAPPLGGVSAGEEKGKRKCQEYSSLHLTQPLDSVDQTVHNSRTSTATIDPSKPSPESMSPNSSHTLSRKQWRNRQKNKRRHKNKFRPLQTPEQAPPKASIEETEVPPVPKSDSQESRAGALRARMTQRLDGARFRYLNEQLYSGPSSAARRLFQEDPEAFLLYHRGFQRQVKKWPLHPVDRIAKDLRQKPASLVVADFGCGDCRLASSVRNPVHCFDLASLDPRVTVCDMAQVPLEDESVDVAVFCLSLMGTNIRDFLEEANRVLKTGGLLKVAEVSSRFEDIRTFLGAVTKLGFKIIYKDLTNSHFFLFDFEKTGPPRVGPKAQLSGLKLQPCLYKRR
Consider B1, for which the binding entry was “binds”.

B2: 60S ribosome subunit biogenesis protein NIP7 homolog (protein, UniProt Q9CXK8 1-180)
chain: MRPLTEEETRVMFEKIAKYIGENLQLLVDRPDGTYCFRLHNDRVYYVSEMMLKLAANISGDKLVSLGTCFGKFTKTHKFRLHVTALDYLAPYAKYKVWVKPGAEQSFLYGNHVLKSGLGRITENTSQYQGVVVYSMADIPLGFGVAAKSTQDCRKVDPMAIVVFHQADIGEYVRHEETLT
In the case of B2, the binding entry is reported as “binds”.

B3: SUMO1-specific protease SENP1 (enzyme, UniProt P59110 1-640)
chain: MDDTADGVKMDAGEVTLVNHGSTFRTHRPPQSGFPEEQLLLSDQQSLPFRQGTLDGSFTCSTRSPAYRPDYHSDNPSSDSFLGSGDVRTFGQSANGQWRNSTPASGSAPQKPRNSRSLCLETRKTSSGLSNTFVGKSNHHCHMSAYEKSFPIKPAPSPSWSGSCRRSLLSPKKTQRRHFSTAEETVQEEEKEIYRQLLQMVTGKQFCVAKPTTHFPLRLSRCLSSNKNSLKDSLLRNGNSCASHVIGSDTSSSGSASILTAQEQLSHSAHSLSSGTPDVAFGSKDSDPHHHLAAPHQPNSLPASNTQSEGSDSVILLKVKESQTPASSPTFFQAELWIKELTSVYDSRARERLRRIEEQKALALQLQNQRLQEQEHAVLDSVELHLRVPLEKEIPVTAAQETRKKSHQLTDSEDEFPEITEEMEKEIKNVFRNGNQDEVLSEAFRLTITRKDIQTLNHLNWLNDEIINFYMNMLMERSKEKGFPSVHAFNTFFFTKLKTAGYQAVKRWTKKVDVFSVDILLVPIHLGVHWCLAVVDFRRKSITYYDSMGGINNEACRILLQYLKQESVDKKRKEFDTNGWQLFSKKSQEIPQQMNGSDCGMFACKYADCITKDRPINFTQQHMPYFRKRMVWEILHRKLL
Turning to B3, the binding entry is on record as “binds”.

B4: E3 SUMO-protein ligase CBX4 (enzyme, UniProt O55187 1-551)
chain: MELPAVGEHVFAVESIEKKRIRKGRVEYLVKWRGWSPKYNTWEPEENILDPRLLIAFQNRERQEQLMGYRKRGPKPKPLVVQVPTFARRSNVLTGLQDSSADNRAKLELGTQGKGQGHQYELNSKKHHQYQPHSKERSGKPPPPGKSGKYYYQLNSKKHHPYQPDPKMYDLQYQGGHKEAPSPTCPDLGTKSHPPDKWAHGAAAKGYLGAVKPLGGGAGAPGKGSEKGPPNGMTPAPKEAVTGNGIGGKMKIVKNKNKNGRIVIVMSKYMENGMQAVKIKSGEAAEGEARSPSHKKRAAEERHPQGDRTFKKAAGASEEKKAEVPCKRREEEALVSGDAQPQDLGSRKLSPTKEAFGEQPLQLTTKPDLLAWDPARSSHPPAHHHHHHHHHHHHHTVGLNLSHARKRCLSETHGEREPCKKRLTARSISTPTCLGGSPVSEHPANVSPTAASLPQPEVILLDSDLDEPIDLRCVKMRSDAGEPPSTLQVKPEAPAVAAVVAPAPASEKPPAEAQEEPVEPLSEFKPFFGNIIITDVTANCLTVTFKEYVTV
Regarding B4, the binding result was “binds”.

B5: ribosomal RNA processing protein Rrp1 (protein, UniProt P56183 1-494)
chain: MVPGVPLPPEIQLAQRLAGNEQVTRDRALRKLRKYIEARSQRATGGFTPDELLKVWKGLFYCMWMQDKPLQQEELGRTIAQLVHAFHTTEAQHQFLKAFWQTMIREWVGIDRLRLDKFYMLMRMVLSESLKAVKARGWDERQIEQLLELLTTEILNPDSQAPSGVKSHFLEIFLEELAKVGAAELTADQNLQFIDPFCQIAARTKDSQVLHKIIQSIFQTIVEQAPLAIEDIMNELDTQSGEGEASDGDDGEASDGDDGEASDDDDGEASDGGDGDVADSDDSDGADDDDGDVSDGDGGDNDEGDSNKSSEGEQDLQDTPPKKLPAGTAHRAGPEADKEQAWDDEENAGPVLQFDYEALANRLFKLASRQSTPSQNRKRLYKVIQKLRELAGGTFPEDDVPEKAYKKMLEGRRERKKKKKRLPKPQPQNKEAGSEAESSSADPGPGRKRKRNRKTDEKAGQGGPPGKRRKPGARAKGAGAQQPKKRIQSSQSAE
As to B5, the binding result is recorded as “binds”.

B6: ribosomal RNA processing protein Rrp7a (protein, UniProt Q9D1C9 1-280)
chain: MVSRRKKRKAGGHEESIPSPPGYSAVPVKFSAKQQAPHYLYMRQHRVRQGTQSTWPPDRTLFILNVPPYCTQESLSRCLSCCGTIKTVELQEKPDLAESPTEPKSQFFHPKPVPGFQVAYVVFQKPSGVSAALNLKGPLLVSTESHLVKSGIHKWISDYEDSVLDPEALRMEVDAFMEAYDKKIAEEEAKAKEEEGVPDEEGWVKVTRRGRRPVLPRTEAASLRVLEKEKRKRARKELLNFYAWQHRETKMEHLAQLRKKFEEDKQRIELMRAQRKFRPY
Turning to B6, the binding result was “binds”.

B7: ribosomal RNA processing protein Rrp36 (protein, UniProt Q3UFY0 1-244)
chain: MRKAGSRARAEAEGPHRAMEGGEVTGDRLKADTPDVSFEELLRLQGQGRPKAHKQLVAGNSTRTRSPQQPVCVADKHRPLEMSAKVRVPFLRQVVPISKKVARDPRFDDLSGDYNPEVFDKTYQFLNDIRAKEKQLVKKQLKRHRSGEERDKLQQLLQRMEQQEMAQQERKQQQELRLALKQERRAQAQQGHRPYFLKKSEQRQLALAEKFKELRRSKKLESFLSRKRRRNAGKDRRHLPLSKE
In the case of B7, the binding result is on record as “binds”.
